# Assay results from PubChem BioAssay (Tox21).
# Chains of the proteins cited; added tags and fusions are not shown. Lines headed by an entry give the natural chain unless they say otherwise; changes in a name come on top.
# UniProt Q969F8, whole entry, looked up: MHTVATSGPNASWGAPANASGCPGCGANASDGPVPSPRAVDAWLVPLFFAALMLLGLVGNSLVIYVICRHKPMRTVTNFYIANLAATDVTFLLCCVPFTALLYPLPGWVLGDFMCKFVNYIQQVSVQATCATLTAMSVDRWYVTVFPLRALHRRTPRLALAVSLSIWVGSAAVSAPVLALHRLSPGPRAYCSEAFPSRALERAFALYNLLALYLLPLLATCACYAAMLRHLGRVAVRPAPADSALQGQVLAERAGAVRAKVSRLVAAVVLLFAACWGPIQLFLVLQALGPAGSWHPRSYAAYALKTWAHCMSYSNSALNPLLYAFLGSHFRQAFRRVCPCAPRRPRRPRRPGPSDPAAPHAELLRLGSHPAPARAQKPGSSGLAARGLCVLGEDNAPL
# UniProt P14416, whole entry, looked up: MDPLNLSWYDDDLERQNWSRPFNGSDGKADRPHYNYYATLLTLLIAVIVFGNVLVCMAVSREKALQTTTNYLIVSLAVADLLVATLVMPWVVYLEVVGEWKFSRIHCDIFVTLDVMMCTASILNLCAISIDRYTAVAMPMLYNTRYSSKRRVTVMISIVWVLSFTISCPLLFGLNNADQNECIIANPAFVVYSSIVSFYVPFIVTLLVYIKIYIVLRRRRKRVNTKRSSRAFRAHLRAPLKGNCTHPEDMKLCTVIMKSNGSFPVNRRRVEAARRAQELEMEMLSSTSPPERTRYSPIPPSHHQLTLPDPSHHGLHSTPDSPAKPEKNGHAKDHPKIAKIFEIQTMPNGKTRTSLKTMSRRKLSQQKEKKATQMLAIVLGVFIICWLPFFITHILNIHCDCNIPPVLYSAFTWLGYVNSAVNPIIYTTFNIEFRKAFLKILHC
# UniProt P28223, whole entry, looked up: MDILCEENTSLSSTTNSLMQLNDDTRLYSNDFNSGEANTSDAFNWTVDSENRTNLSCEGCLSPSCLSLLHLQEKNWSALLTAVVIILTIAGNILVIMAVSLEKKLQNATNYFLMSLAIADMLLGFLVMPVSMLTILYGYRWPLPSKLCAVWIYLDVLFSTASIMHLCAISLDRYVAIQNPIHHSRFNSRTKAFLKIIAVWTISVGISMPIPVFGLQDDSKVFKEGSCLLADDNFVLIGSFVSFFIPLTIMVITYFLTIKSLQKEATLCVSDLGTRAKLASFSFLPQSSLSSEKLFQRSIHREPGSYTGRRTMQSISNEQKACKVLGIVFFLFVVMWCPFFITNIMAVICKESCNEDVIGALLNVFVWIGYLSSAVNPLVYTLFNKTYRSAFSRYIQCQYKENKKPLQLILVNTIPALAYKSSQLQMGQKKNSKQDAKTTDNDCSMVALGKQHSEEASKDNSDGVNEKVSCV
# UniProt P11229: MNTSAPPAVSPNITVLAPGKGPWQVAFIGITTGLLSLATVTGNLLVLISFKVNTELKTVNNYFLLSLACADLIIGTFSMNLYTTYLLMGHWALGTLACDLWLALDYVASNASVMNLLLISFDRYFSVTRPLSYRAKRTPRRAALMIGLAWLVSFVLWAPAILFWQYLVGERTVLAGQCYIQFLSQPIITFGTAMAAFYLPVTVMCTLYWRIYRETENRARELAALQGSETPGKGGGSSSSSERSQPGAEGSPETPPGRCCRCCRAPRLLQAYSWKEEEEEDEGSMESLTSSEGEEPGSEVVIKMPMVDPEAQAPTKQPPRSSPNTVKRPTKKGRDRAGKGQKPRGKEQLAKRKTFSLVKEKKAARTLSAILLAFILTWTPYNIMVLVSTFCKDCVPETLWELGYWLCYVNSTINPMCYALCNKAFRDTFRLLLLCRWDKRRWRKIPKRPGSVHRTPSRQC
# “And” between values parts separate entries of the source, which are not always exact repeats. Equal entries are not always repeated. Inconclusive means that the source gave no clear call. Such entries were picked first, then a sample of the others. For part of these data: Where the call is inconclusive, the potency comes from a doubtful curve fit. The source made the active and inactive calls. Unless noted, calls come from the whole dose curve.
# Columns and labels:
# [1] = molecular target: KiSS-1 receptor (Homo sapiens) (UniProt Q969F8); test: Human kisspeptin (KISS1R) small molecule agonists, calcium flux assay in KISS1R-HEK293 cells (AID 1920064; active = well fitted activation curve with a large enough effect in the repeat runs; inconclusive = weak or mixed curves; note: potency is the fitted concentration of half-maximal effect; for activation: % is set by controls: 0 for no effect and ±100 for the full control effect)
# How it was run: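 After overnight (18 h) culture at 37 C/5% CO2, human KISS1R-HEK293 cells received calcium dye for 1 h, then test compound; emission at 540 nm (excitation 480 nm) was tracked for 3 min.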
# [2] = molecular target: Beta-2 adrenergic receptor (Homo sapiens) (UniProt P07550); test: Adrenergic beta2 receptor (ADRB2) small molecule agonists, cell-based qHTS assay (AID 1963593); conditions: CHO-ADRB2 cells, cAMP HTRF, 30 min; activation: at 92.4 µM (top of the series) unless noted; note: potency is the fitted concentration of half-maximal effect;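 for activation: CHO cells stably overexpressing human ADRB2; % is set by controls: 0 for no effect and ±100 for the full control effect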
# How it was run: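 CHO cells stably over-expressing ADRB2 were plated overnight at 37C, then dosed with compounds plus a stimulation mix containing 100uM IBMX and 25uM Ro-20-1724 for 0.5hr at room temperature. cAMP was measured by HTRF competition, 1hr.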
# [3] = G protein-coupled receptor (GPCR) small molecule agonists, calcium flux assay: HEK293 wild type cell line counter screen (AID 1920065); note: % is set by controls: 0 for no effect and ±100 for the full control effect
# How it was run: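 Following 18 h incubation at 37 C/5% CO2, plates got calcium dye for 1 h; compounds, ATP or DMSO were then pinned in and fluorescence followed kinetically (480/540 nm).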
# [4] = cAMP Responsive Elements (CRE) small molecule antagonists, cell-based qHTS assay (AID 1963591; active = well fitted inhibition curve with a large enough effect in the signal ratio in the repeat runs, not every such curve was filed as active; inconclusive = weak or mixed curves, or effect the other way; the % refers to the signal ratio; note: potency is the fitted concentration of half-maximal effect); conditions: CRE-bla HEK293T, beta-lactamase FRET ratio; activity change, negative = inhibition: at 92.4 µM (top of the series) unless noted
# How it was run: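 Reporter line CRE-bla HEK 293T in dialyzed-FBS DMEM; cells preincubated 18 h, treated 3 h with compound plus NKH477 (0.25 uM final); LiveBLAzer FRET, 2 h RT.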
# [5] = p53 small molecule agonists, cell-based qHTS assay with rat liver microsomes: qHTS cell viability counter screen (AID 1963580); note: potency is the fitted concentration of half-maximal effect; nearly all actives have a fitted effect of over 45% in size
# How it was run: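 Counter screen for cytotoxicity under metabolic activation: rat liver microsomes and NADPH, 0.5 mg/mL final each, added with compounds to p53RE-bla HCT-116 cells; 16 h at 37 C, then ATP luminescence read.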
# [6] = cAMP Responsive Elements (CRE) small molecule agonists, cell-based qHTS assay (AID 1963590); conditions: CRE-bla HEK293T, beta-lactamase FRET ratio, 3 h; activation: at 92.4 µM (top of the series) unless noted; note: potency is the fitted concentration of half-maximal effect
# How it was run: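 Test agents in DMSO were incubated 3 h at 37 C/5% CO2 with CRE-bla HEK 293T cells seeded 18 h earlier; LiveBLAzer B/G FRET substrate was added and read after 2 h at room temperature.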
# [7] = molecular target: Beta-2 adrenergic receptor (Homo sapiens) (UniProt P07550); test: Adrenergic beta2 receptor (ADRB2) small molecule antagonists, cell-based qHTS assay (AID 1963592); conditions: CHO-ADRB2 cells, isoproterenol-stimulated cAMP HTRF ratio, 0.5 h; activity change, negative = inhibition: at 92.4 µM (top of the series) unless noted; note: nearly all actives have a fitted effect of over 50% in size; note: potency is the fitted concentration of half-maximal effect
# How it was run: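 Assay format: CHO-ADRB2 cells, 18-20hr seeding at 37C/5% CO2, then compound plus 1nM isoproterenol agonist mix for 0.5hr RT. Homogeneous time-resolved fluorescence cAMP detection after 1hr, expressed as 665/615 nm ratio.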
# [8] = molecular target: D(2) dopamine receptor (Homo sapiens) (UniProt P14416); test: Dopamine D2 receptor (DRD2) small molecule antagonists, cell-based qHTS assay (AID 1963595; active = well fitted inhibition curve with a large enough effect in the signal ratio in the repeat runs, with a control signal flat; inconclusive = weak or mixed curves, or effect the other way; the % refers to the signal ratio; note: potency is the fitted concentration of half-maximal effect); conditions: HEK293-DRD2 cAMP HTRF antagonist mode; activity change, negative = inhibition: at 92.4 µM (top of the series) unless noted
# How it was run: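 Human DRD2 antagonist qHTS measuring cAMP by HTRF. The cells are exposed to compound for 10 min, then to NKH477 (200 nM) and quinpirole (12 nM) for 30 min at RT, with Ro20-1724 (0.1 mM) present throughout.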
# [9] = p53 small molecule agonists, cell-based qHTS assay: qHTS cell viability counter screen (AID 1963581); note: % is set by controls: 0 for no effect and ±100 for the full control effect; nearly all actives have a fitted effect of over 45% in size
# How it was run: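 qHTS counter screen: 16 h compound exposure at 37 C of p53RE-bla HCT-116 cells (4,000 per well, seeded 5 h prior), cell viability by ATP luminescence.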
# [10] = molecular target: 5-hydroxytryptamine receptor 2A (Homo sapiens) (UniProt P28223); test: 5-hydroxytryptamine receptor 2A (HTR2A) small molecule antagonists, cell-based qHTS assay (AID 1963586); note: % is set by controls: 0 for no effect and ±100 for the full control effect; nearly all actives have a fitted effect of over 45% in size
# How it was run: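 CHO cells stably expressing human HTR2A were plated for 18 h at 37 C, then loaded with calcium dye for 1 h. Compounds were preincubated 5 min at room temperature before DOI (4 nM solution) was added. Kinetic fluorescence was read for 3 min.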
# [11] = p53 small molecule agonists, cell-based qHTS assay with human liver microsomes (AID 1963577); conditions: HCT-116 p53RE-bla with human liver microsomes, ratio, 16 h; activation: at 66 µM (top of the series) unless noted; note: potency is the fitted concentration of half-maximal effect
# How it was run: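 Fluorescence of the beta-lactamase reporter in p53RE-bla cells, detected with LiveBLAzer substrate (2 h, room temperature, dark), served as the read-out after 16 h compound exposure at 37 C with human liver microsomes and NADPH, each 0.5 mg/mL final.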
# [12] = molecular target: Muscarinic acetylcholine receptor M1 (Homo sapiens) (UniProt P11229); test: Cholinergic receptor muscarinic 1 (CHRM1) small molecule agonists, cell-based qHTS assay (AID 1963589); note: potency is the fitted concentration of half-maximal effect; nearly all actives have a fitted effect of over 35% in size
# How it was run: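 Kinetic fluorescence (1 s intervals) of calcium-sensitive dye in human M1 CHO cells after compound addition; cells pre-incubated 18 h at 37 C/5% CO2 and dye-loaded 1 h.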
# [13] = molecular target: D(2) dopamine receptor (Homo sapiens) (UniProt P14416); test: Dopamine D2 receptor (DRD2) small molecule agonists, cell-based qHTS assay (AID 1963594); conditions: HEK293-DRD2 cAMP HTRF, agonist mode, 30 min; activation: at 92.4 µM (top of the series) unless noted; note: nearly all actives have a fitted effect of over 35% in size; note: potency is the fitted concentration of half-maximal effect
# How it was run: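 HEK293 cells stably expressing DRD2 were cultured 24 h at 37 C, then given Ro20-1724 (0.1 mM final) and compounds for 10 min at room temperature. NKH477 (200nM) was then added for 30 min. cAMP was read by HTRF.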
# [14] = p53 small molecule agonists, cell-based qHTS assay with rat liver microsomes (AID 1963578); conditions: HCT-116 p53RE-bla, beta-lactamase ratio, 16 h; activation: at 66 µM (top of the series) unless noted; note: potency is the fitted concentration of half-maximal effect
# How it was run: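 Cells carrying a p53 response element–beta-lactamase reporter were plated and rested 5 h, then dosed with compound in DMSO plus rat liver microsomes and NADPH, each at 0.5 mg/mL final. After 16 h at 37 C, LiveBLAzer substrate was added for 2 h.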
# [15] = p53 small molecule agonists, cell-based qHTS assay (AID 1963582; active = well fitted activation curve with a large enough effect in the signal ratio in the repeat runs, not every such curve was filed as active; inconclusive = weak or mixed curves; the % refers to the signal ratio; note: % is set by controls: 0 for no effect and ±100 for the full control effect); conditions: HCT-116 p53RE-bla reporter, beta-lactamase FRET ratio, 16 h; activation: at 66 µM (top of the series) unless noted
# How it was run: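 Measured: fluorescence from cleaved LiveBLAzer substrate. System: p53RE-bla cells, 16 h compound treatment at 37 C, 2 h substrate step at room temperature.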
# [16] = p53 small molecule agonists, cell-based qHTS assay with human liver microsomes: qHTS cell viability counter screen (AID 1963579); note: potency is the fitted concentration of half-maximal effect; nearly all actives have a fitted effect of over 45% in size
# How it was run: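 Cytotoxicity counter screen: p53RE-bla, 4,000 cells/well; 5 h settle, 37 C/5% CO2; cpd + HLM 0.5 mg/mL + NADPH 0.5 mg/mL (final); 16 h, 37 C; CellTiter-Glo, 30 min RT, luminescence.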
structure (smiles),measurement,setting,value
CC(C)(C)N(CCO)CCO,Potency,[1],inactive
same,activation,[2],inconclusive: 15.9%
CCCCN(CCC(=O)OCC)C(C)=O,Potency,[3],inactive
same,Potency,[4],inactive
C=CC(=O)NC(C)(C)CS(=O)(=O)O,Potency,[1],"inconclusive: 30.2 µM [activator, partial curve, poor fit]"
same,Potency,[5],"inconclusive: 4.48 µM [cytotoxic, single point]"
same,Potency,[6],"inconclusive: 55.3 µM [rising, partial curve]"
same,Potency,[4],inactive
same,"activity change, negative = inhibition",[7],inconclusive: -20.5%
same,"activity change, negative = inhibition",[8],inconclusive: -17.8%
CCCc1ccc(O)cc1,Potency,[1],inactive
same,Potency,[9],inactive
same,Potency,[10],inactive
same,Potency,[4],inactive
same,Potency,[2],inactive
CCCCCCCCCCCO,Potency,[3],inactive
same,Potency,[11],"inconclusive: 46.9 µM [activator, single point]"
same,Potency,[2],inconclusive: 0.217 µM [inhibitor]
same,activation,[2],inconclusive: -36.6%
O=C1OC(=O)C2CC=CCC12 (stereo unspecified),Potency,[1],inactive
same,Potency,[4],inactive
same,Potency,[2],inactive
CCCCCCC,Potency,[1],inactive
same,Potency,[6],inactive
same,Potency,[4],inactive
same,Potency,[2],inactive
O=C(O)c1ccc([N+](=O)[O-])cc1,Potency,[1],"inconclusive: 54.8 µM [activator, partial curve, poor fit]"
same,Potency,[4],inactive
same,Potency,[2],"inconclusive: 76.7 µM [activator, partial curve, poor fit]"
N[C@@H](CCC(=O)O)C(=O)O,Potency,[1],inactive
same,Potency,[2],inactive
O=C1OC2(c3ccccc31)c1cc(Br)c(O)c(Br)c1Oc1c2cc(Br)c(O)c1Br,Potency,[1],active: 39.5 µM and active: 44.9 µM and active: 23.9 µM
same,Potency,[11],"inconclusive: 32.9 µM [rising, partial curve] and inconclusive: 37.4 µM [rising, partial curve] and inconclusive: 15.8 µM [rising, partial curve]"
same,Potency,[9],inactive
same,Potency,[12],active: 19.8 µM and active: 22.5 µM and active: 21.3 µM
same,Potency,[6],"inconclusive: 43.9 µM [rising, partial curve] and inconclusive: 56 µM [rising, partial curve] and inconclusive: 21.1 µM [rising, partial curve]"
same,Potency,[4],"inconclusive: 43.9 µM [rising, partial curve] and inconclusive: 49.9 µM [rising, partial curve] and inconclusive: 23.7 µM [rising, partial curve]"
same,Potency,[7],active: 62 µM and active: 62.8 µM and active: 21.1 µM
same,Potency,[2],"inconclusive: 62 µM [inhibitor, partial curve] and inconclusive: 62.8 µM [inhibitor, partial curve] and inconclusive: 13.3 µM [inhibitor, partial curve]"
same,Potency,[13],active: 62 µM and active: 60.5 µM and active: 29.8 µM
same,Potency,[8],"inconclusive: 62 µM [activator, partial curve] and inconclusive: 62.8 µM [activator]"
same,"activity change, negative = inhibition",[8],inconclusive: 17.8% [at 42.5 µM]
O=C1OC2(c3ccc(O)cc3Oc3cc(O)ccc32)c2ccc(N=C=S)cc21,Potency,[1],active: 44.4 µM
same,Potency,[11],"inconclusive: 41.5 µM [rising, single point]"
same,Potency,[14],"inconclusive: 52.3 µM [rising, single point]"
same,Potency,[6],"inconclusive: 69.8 µM [rising, single point]"
same,Potency,[7],"inconclusive: 69.8 µM [falling, partial curve, poor fit]"
same,Potency,[2],inactive
same,Potency,[13],"inconclusive: 622 nM [falling, single point]"
same,Potency,[8],"inconclusive: 78.4 µM [falling, partial curve, poor fit]"
CCN1CCN(C(=O)N[C@@H](C(=O)N[C@@H]2C(=O)N3C(C(=O)O)=C(CSc4nnnn4C)CS[C@H]23)c2ccc(O)cc2)C(=O)C1=O,Potency,[1],"inconclusive: 9.52 µM [activator, partial curve]"
same,Potency,[15],inactive
same,Potency,[4],inactive
same,activation,[2],inconclusive: -3.89% [at 42.5 µM]
CC(C)=CCCC(C)CCOC(=O)C(C)C (stereo unspecified),Potency,[1],inactive
same,Potency,[7],inactive
CNCC(O)c1ccc(O)c(O)c1 (stereo unspecified),Potency,[1],"inconclusive: 0.268 µM [activator, full curve, poor fit]"
same,Potency,[16],"inconclusive: 0.0707 µM [rising, partial curve, poor fit]"
same,Potency,[6],"inconclusive: 0.531 µM [activator, full curve]"
same,Potency,[4],"inconclusive: 133 nM [activator, full curve, poor fit]"
same,activation,[13],inconclusive: 10.1% [at 42.5 µM]
same,Potency,[8],active: 5.31 µM
CCO[C@@H]1O[C@H](C(COCc2ccccc2)OCc2ccccc2)[C@H](OCc2ccccc2)[C@H]1O (stereo partly specified),Potency,[1],"inconclusive: 16.9 µM [activator, partial curve]"
same,activation,[2],inconclusive: 13.3% [at 42.5 µM]
CCCC[O][Al]([O]CCCC)[O]CCCC,Potency,[3],inactive
same,Potency,[2],"inconclusive: 2.73 µM [inhibitor, single point]"

# Retrieved one by one from the entries so far (2):
structure (smiles),measurement,setting,value
CCCCCCCCCCCO,Potency,[2],inconclusive: 0.217 µM [inhibitor]
CCO[C@@H]1O[C@H](C(COCc2ccccc2)OCc2ccccc2)[C@H](OCc2ccccc2)[C@H]1O (stereo partly specified),activation,[2],inconclusive: 13.3% [at 42.5 µM]
